Assay in all cases: log2 fold change, soluble protein after heating vs DMSO (PISA); higher = thermal stabilisation; K562 cells, 10 uM, 30 min; active = over 0.2 and 3.5 SD of the protein, either way, in both replicates (recomputed)
Compound in assay [1]: CC1=C2C(=CC=C1)N=C(N(C2=O)C3=CC=CC=C3C)CN4C=NC5=C(N=CN=C54)N
In short, it runs like this: (§1)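 Values are thermal stability changes relative to control samples and are taken from duplicates. They are stated as log2 fold changes. Before quantification by TMTpro 16plex LC-MS/MS with equalised channel sums, K562 cells at 2×10^6 cells/mL were treated with 10 μM compound for 30 min, heated in aliquots for 3 min across 48°C-58°C, pooled, extracted in PBS with 0.5% NP-40 at 4°C, and centrifuged at 21,000xg for 90 min to give the soluble supernatant.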

Sequences of proteins named here, by UniProt entry; tags and fusion partners are left off. A change or cut given only in a name is not applied to a line headed by its entry.
UniProt O75616: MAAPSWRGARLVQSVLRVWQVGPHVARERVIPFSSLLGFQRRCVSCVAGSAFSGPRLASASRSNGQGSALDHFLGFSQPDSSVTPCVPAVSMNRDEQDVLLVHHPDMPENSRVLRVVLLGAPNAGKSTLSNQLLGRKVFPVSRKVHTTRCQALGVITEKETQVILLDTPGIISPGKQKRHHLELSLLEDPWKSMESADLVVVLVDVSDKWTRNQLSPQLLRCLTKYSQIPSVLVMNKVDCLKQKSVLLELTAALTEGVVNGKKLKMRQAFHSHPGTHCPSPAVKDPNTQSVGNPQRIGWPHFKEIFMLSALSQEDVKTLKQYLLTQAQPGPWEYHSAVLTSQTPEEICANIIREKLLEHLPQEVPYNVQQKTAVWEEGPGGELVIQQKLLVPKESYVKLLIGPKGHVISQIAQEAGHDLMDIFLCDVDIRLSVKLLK
UniProt O75460: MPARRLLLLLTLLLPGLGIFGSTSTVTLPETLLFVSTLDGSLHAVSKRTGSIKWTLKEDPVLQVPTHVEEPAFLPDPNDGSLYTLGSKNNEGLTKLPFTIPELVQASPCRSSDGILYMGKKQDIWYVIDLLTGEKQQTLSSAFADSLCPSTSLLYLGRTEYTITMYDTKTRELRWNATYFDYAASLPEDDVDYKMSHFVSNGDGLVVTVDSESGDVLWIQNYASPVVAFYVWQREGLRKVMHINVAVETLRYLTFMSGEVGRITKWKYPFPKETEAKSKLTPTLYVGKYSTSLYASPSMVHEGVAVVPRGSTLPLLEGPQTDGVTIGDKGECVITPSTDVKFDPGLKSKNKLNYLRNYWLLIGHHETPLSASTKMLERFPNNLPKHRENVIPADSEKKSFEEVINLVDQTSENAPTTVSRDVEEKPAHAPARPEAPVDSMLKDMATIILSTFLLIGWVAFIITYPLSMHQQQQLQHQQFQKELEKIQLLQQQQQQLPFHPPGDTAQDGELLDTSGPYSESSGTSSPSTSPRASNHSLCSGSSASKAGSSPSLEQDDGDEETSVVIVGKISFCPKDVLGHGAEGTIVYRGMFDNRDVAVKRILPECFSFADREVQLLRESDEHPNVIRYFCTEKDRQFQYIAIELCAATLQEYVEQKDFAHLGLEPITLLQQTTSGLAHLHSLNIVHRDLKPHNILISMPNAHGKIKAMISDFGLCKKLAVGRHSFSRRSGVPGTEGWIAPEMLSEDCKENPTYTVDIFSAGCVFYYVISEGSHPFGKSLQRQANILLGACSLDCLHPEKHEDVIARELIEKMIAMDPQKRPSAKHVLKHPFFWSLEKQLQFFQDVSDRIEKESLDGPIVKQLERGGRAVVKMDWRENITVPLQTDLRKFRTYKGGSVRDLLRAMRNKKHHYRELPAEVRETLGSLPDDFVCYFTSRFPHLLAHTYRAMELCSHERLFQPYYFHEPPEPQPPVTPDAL
UniProt Q5T8I3: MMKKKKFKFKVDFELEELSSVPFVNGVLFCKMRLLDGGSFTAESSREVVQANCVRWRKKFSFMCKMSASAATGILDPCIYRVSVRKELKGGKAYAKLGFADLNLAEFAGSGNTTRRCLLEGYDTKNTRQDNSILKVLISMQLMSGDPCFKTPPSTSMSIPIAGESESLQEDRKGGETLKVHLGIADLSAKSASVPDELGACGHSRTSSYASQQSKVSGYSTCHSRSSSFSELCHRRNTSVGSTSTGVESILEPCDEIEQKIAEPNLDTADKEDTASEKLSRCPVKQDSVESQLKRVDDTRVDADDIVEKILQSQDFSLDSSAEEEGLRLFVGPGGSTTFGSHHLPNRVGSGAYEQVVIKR
UniProt Q96RI0: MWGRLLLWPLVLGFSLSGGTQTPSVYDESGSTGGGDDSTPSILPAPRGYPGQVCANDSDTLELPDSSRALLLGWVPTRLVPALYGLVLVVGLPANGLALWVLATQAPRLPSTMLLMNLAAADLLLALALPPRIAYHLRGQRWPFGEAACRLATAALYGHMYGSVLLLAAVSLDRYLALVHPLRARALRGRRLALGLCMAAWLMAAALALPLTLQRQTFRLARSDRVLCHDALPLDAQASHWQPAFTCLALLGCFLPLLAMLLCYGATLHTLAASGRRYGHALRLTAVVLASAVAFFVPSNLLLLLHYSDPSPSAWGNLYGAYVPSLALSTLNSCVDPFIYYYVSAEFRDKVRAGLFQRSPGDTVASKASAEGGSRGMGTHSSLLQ
UniProt Q6P1L5: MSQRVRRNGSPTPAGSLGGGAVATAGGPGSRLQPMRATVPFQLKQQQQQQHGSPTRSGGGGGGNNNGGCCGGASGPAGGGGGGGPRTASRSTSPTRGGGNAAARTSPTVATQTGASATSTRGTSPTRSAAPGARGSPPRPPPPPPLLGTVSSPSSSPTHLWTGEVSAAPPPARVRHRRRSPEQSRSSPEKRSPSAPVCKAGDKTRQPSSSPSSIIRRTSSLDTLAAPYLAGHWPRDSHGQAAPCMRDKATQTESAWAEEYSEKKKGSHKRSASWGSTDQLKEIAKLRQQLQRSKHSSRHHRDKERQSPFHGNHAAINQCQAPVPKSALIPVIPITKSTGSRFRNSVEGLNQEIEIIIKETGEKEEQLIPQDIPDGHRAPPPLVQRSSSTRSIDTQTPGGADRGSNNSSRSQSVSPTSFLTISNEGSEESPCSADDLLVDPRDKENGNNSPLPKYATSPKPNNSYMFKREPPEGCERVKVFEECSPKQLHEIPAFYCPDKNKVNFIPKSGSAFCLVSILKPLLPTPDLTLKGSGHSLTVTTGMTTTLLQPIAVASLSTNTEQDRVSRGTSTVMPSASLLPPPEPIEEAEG
UniProt Q8WUF8: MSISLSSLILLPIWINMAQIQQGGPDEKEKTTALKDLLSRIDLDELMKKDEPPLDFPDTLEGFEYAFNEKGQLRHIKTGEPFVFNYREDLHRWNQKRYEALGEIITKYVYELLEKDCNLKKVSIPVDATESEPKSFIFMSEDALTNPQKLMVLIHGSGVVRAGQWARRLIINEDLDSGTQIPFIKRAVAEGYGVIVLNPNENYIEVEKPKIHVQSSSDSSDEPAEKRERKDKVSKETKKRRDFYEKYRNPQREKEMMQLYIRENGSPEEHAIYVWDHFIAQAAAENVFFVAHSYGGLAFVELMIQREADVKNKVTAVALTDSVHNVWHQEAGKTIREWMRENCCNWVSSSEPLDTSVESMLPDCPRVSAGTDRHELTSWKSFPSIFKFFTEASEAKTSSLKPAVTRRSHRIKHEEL
UniProt Q86V87: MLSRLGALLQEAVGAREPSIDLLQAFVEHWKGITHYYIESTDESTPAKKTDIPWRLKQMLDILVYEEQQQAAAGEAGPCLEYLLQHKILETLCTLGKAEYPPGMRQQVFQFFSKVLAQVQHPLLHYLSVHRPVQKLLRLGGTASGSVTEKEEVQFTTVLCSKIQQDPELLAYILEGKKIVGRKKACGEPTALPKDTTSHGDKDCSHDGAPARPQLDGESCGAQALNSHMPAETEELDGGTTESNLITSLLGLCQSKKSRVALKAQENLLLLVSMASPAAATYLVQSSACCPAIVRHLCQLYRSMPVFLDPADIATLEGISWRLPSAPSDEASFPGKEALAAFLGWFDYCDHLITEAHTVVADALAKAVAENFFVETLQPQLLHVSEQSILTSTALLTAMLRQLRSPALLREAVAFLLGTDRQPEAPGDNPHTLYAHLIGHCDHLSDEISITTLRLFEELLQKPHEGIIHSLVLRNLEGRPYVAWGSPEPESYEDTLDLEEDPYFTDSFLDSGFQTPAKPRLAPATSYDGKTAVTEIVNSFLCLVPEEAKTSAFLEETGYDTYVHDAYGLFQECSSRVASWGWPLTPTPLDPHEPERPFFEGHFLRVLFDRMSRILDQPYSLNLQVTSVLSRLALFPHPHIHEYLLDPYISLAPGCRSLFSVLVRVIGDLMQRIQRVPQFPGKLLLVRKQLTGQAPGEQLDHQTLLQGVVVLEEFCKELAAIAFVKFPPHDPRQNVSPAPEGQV
UniProt Q9Y2C4: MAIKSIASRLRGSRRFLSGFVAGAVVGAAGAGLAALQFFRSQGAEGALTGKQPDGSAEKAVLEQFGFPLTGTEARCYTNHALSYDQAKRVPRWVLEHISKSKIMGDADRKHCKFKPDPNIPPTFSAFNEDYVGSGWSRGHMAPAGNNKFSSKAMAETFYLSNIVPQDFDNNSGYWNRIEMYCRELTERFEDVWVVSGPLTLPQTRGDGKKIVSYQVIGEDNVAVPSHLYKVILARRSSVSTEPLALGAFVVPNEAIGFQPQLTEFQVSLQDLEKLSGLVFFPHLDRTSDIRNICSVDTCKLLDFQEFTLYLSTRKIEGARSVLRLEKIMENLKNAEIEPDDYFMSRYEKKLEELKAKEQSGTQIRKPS
UniProt P50548: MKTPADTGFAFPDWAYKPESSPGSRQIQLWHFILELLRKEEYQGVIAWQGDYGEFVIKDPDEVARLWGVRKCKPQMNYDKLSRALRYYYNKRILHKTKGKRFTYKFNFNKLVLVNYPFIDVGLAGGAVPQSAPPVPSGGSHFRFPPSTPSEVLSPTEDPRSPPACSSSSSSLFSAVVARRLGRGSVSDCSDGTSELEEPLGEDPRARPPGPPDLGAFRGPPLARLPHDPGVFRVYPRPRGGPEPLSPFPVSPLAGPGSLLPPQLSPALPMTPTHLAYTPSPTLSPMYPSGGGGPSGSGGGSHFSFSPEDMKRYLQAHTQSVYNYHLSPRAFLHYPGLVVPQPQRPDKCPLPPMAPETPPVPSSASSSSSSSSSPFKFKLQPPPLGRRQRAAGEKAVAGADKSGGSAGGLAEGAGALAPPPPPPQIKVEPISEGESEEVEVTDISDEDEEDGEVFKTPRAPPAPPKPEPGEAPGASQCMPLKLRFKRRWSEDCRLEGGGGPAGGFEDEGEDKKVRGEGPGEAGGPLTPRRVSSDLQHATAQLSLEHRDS
UniProt P00488: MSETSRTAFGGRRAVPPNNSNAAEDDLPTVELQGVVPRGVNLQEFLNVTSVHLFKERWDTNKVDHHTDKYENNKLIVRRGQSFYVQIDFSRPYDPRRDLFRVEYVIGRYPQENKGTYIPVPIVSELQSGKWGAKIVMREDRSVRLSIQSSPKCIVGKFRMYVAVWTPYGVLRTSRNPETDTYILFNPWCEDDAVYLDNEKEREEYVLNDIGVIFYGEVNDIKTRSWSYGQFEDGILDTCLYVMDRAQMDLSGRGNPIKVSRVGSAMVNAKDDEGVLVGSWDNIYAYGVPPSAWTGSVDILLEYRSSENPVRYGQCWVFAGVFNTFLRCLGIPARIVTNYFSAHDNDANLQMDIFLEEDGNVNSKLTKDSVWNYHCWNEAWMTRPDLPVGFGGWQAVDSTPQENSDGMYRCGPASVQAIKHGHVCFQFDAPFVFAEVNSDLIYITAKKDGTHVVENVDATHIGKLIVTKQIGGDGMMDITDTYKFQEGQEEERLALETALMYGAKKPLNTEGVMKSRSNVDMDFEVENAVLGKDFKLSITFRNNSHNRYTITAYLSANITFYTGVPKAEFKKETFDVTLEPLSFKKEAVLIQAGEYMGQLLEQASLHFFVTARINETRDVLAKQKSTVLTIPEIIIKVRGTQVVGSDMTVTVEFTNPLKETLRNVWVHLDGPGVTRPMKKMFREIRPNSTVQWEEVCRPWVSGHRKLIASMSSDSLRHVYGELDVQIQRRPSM
UniProt Q7Z309: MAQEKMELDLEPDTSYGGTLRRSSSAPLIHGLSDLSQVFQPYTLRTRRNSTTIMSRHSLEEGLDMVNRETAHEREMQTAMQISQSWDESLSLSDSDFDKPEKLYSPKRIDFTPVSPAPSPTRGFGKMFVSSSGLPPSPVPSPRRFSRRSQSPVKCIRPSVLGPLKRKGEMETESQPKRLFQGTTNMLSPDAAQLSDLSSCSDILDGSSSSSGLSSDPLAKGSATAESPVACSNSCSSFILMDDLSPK
UniProt Q9H8W3: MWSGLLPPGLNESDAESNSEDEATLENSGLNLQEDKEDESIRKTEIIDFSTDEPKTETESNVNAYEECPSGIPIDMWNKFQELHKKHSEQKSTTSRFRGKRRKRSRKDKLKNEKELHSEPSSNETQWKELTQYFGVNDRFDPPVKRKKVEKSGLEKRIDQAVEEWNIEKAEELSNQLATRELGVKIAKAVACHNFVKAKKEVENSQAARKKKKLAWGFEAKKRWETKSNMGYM
UniProt Q86X53: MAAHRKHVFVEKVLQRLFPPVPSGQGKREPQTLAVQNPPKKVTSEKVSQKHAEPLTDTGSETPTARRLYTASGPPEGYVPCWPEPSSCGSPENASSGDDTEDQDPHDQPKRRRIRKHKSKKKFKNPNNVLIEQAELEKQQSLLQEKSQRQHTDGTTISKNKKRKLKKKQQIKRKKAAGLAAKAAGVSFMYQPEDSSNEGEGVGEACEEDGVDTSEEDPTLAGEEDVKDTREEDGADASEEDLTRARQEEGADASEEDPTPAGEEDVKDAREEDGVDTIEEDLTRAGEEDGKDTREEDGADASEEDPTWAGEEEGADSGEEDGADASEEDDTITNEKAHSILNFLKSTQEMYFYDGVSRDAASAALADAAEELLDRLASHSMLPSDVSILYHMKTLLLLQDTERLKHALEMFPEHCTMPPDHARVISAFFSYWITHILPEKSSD

Compound in assay [2]: Cc1sc2c(c1C)C(c1ccc(Cl)cc1)=N[C@@H](CC(=O)OC(C)(C)C)c1nnc(C)n1-2
In short, it runs like this: as §1

Compound in assay [3]: C1=CC=C(C=C1)[C@H](COC2=CC3=C(C=C2)NC(=O)N3)NC(=O)C4=CC=CN(C4=O)CC5=CC(=C(C=C5)F)F
In short, it runs like this:
as §1

Compound in assay [4]: CC1=C(SC2=C1C(=N[C@H](C3=NN=C(N32)C)CC(=O)N)C4=CC=C(C=C4)Cl)C
In short, it runs like this: as §1

Compound in assay [5]: c1ccc([C@@H]2C[C@H]2NC2CCNCC2)cc1
In short, it runs like this:
as §1

Some of the results follow.

32 targets from the supplement of paper PMC10849652 can be followed below.

FAM174A (UniProt Q8TBP5): the log2 fold change in assay [1] is inactive: 0.303; in assay [2], inactive: -0.06.
As for EPS15L1 (UniProt M0QY01), in assay [1], the log2 fold change was inactive: -0.243.
For ERO1B (UniProt Q86YB8), the log2 fold change in assay [3] was inactive: 0.035; in assay [4], inactive: -0.022; in assay [1] it was inactive: 0.064; in assay [5], inactive: -0.008.
With ERCC1 isoform 3 (UniProt P07992), the log2 fold change in assay [4] was inactive: -0.216; in assay [5] it was inactive: 0.059.
With ERAL1 (UniProt O75616), the log2 fold change in assay [3] is inactive: -0.073; in assay [4] it was inactive: -0.145; in assay [1], inactive: -0.069; in assay [5], inactive: 0.065.
In the case of EYA3 (UniProt Q99504), the log2 fold change was inactive: -0.052 in assay [4], inactive: 0.009 in assay [1], inactive: -0.245 in assay [2] and inactive: -0.025 in assay [5].
As for FAM207A (UniProt Q9NSI2), the results for the log2 fold change in assay [3], in assay [1] and in assay [2] were inactive: 0.107, inactive: 0.001 and inactive: 0.021, respectively.
Turning to ERN1 (UniProt O75460), the log2 fold change in assay [2] is inactive: 0.071.
In the case of FAM185A (UniProt Q8N0U4), the log2 fold change in assay [3] was inactive: -0.056; in assay [1] it was inactive: 0.103; in assay [2] it was inactive: -0.205.
Take EVI2B isoform 2 (UniProt P34910): in assay [1], the log2 fold change is inactive: 0.096.
Regarding F13B (UniProt P05160), the log2 fold change is inactive: -0.018 in assay [4], inactive: -0.083 in assay [1], inactive: 0.322 in assay [2] and inactive: 0.036 in assay [5].
Turning to FAM102B (UniProt Q5T8I3), the log2 fold change in assay [1] was inactive: -0.04.
For the target F2RL3 (UniProt Q96RI0), the log2 fold change was inactive: 0.175 in assay [4], inactive: 0.06 in assay [1], inactive: -0.197 in assay [2] and inactive: 0.032 in assay [5].
Turning to FAM117B (UniProt Q6P1L5), the log2 fold change was inactive: 0.283 in assay [4], inactive: 0.116 in assay [1], inactive: -0.097 in assay [2] and inactive: -0.024 in assay [5].
Consider FAM172A (UniProt Q8WUF8), for which the log2 fold change is inactive: 0 in assay [3], inactive: -0.001 in assay [4], inactive: 0.049 in assay [1] and inactive: 0.036 in assay [5].
With FAM160B2 (UniProt Q86V87), the log2 fold change was inactive: -0.203 in assay [4] and inactive: 0.102 in assay [5].
With ETF1 isoform 2 (UniProt P62495), the log2 fold change in assay [3] was inactive: -0.113; in assay [1], inactive: 0.031.
As for EVI5 isoform 2 (UniProt O60447), the log2 fold change in assay [4] is inactive: -0.04; in assay [1] it was inactive: -0.026; in assay [2] it was inactive: -0.216; in assay [5], inactive: 0.171.
Regarding EPS8L2 isoform 3 (UniProt Q9H6S3), the log2 fold change in assay [2] was inactive: -0.188.
On to FADS1 (UniProt F5GYH4), for which the log2 fold change in assay [3] was inactive: -0.216; in assay [1], inactive: -0.02; in assay [2], inactive: -0.036.
With FAM107B isoform 2 (UniProt Q9H098), the log2 fold change in assay [1] is inactive: -0.011.
Take EXOG (UniProt Q9Y2C4): the log2 fold change in assay [4] was inactive: 0.064; in assay [1], inactive: -0.002; in assay [2], inactive: -0.067; in assay [5] it was inactive: -0.003.
Regarding EPS8L1 (UniProt Q8TE68), the log2 fold change in assay [3] is inactive: 0.212; in assay [4], inactive: 0.035; in assay [5], inactive: 0.231.
In the case of ERI1 (UniProt Q8IV48), the log2 fold change is inactive: -0.288 in assay [4], inactive: -0.047 in assay [1], inactive: 0.044 in assay [2] and inactive: -0.02 in assay [5].
FAM135A (UniProt Q9P2D6): the log2 fold change in assay [1] is inactive: 0.106.
With ERF (UniProt P50548), the log2 fold change in assay [2] is inactive: -0.515.
Consider F13A1 (UniProt P00488), for which the log2 fold change is inactive: 0.033 in assay [3] and inactive: -0.019 in assay [2].
With FAM114A1 (UniProt Q8IWE2), the log2 fold change in assay [2] was inactive: -0.363.
Consider FAM122B isoform 2 (UniProt Q7Z309), for which the log2 fold change in assay [4] is inactive: 0.015; in assay [5], inactive: -0.09.
Turning to F2R (UniProt P25116), the log2 fold change in assay [4] is inactive: -0.106; in assay [1], inactive: 0.113; in assay [2], inactive: 0.068; in assay [5] it was inactive: 0.009.
For the target FAM204A (UniProt Q9H8W3), the log2 fold change in assay [4] is inactive: 0.131; in assay [1] it was inactive: 0.048; in assay [2], inactive: 0.003; in assay [5], inactive: -0.031.
Regarding ERICH1 (UniProt Q86X53), in assay [2], the log2 fold change was inactive: 0.203.
